In US20160200789A1, “IL4 CONJUGATED TO ANTIBODIES AGAINST EXTRACELLULAR MATRIX COMPONENTS” (PHILOGEN S.P.A., priority 2013, published 2016):
Results are given in words; binding and its absence hold for the method and conditions named. Some entries that bind do so weakly or less than the wild type. Values belong to the binder of their own block, whether it stands above or below them.

Protein sequences, listed by entry. Tags and fused reporters are not part of them. Residues count along the entry.
UniProt P11276, residues 33-2477: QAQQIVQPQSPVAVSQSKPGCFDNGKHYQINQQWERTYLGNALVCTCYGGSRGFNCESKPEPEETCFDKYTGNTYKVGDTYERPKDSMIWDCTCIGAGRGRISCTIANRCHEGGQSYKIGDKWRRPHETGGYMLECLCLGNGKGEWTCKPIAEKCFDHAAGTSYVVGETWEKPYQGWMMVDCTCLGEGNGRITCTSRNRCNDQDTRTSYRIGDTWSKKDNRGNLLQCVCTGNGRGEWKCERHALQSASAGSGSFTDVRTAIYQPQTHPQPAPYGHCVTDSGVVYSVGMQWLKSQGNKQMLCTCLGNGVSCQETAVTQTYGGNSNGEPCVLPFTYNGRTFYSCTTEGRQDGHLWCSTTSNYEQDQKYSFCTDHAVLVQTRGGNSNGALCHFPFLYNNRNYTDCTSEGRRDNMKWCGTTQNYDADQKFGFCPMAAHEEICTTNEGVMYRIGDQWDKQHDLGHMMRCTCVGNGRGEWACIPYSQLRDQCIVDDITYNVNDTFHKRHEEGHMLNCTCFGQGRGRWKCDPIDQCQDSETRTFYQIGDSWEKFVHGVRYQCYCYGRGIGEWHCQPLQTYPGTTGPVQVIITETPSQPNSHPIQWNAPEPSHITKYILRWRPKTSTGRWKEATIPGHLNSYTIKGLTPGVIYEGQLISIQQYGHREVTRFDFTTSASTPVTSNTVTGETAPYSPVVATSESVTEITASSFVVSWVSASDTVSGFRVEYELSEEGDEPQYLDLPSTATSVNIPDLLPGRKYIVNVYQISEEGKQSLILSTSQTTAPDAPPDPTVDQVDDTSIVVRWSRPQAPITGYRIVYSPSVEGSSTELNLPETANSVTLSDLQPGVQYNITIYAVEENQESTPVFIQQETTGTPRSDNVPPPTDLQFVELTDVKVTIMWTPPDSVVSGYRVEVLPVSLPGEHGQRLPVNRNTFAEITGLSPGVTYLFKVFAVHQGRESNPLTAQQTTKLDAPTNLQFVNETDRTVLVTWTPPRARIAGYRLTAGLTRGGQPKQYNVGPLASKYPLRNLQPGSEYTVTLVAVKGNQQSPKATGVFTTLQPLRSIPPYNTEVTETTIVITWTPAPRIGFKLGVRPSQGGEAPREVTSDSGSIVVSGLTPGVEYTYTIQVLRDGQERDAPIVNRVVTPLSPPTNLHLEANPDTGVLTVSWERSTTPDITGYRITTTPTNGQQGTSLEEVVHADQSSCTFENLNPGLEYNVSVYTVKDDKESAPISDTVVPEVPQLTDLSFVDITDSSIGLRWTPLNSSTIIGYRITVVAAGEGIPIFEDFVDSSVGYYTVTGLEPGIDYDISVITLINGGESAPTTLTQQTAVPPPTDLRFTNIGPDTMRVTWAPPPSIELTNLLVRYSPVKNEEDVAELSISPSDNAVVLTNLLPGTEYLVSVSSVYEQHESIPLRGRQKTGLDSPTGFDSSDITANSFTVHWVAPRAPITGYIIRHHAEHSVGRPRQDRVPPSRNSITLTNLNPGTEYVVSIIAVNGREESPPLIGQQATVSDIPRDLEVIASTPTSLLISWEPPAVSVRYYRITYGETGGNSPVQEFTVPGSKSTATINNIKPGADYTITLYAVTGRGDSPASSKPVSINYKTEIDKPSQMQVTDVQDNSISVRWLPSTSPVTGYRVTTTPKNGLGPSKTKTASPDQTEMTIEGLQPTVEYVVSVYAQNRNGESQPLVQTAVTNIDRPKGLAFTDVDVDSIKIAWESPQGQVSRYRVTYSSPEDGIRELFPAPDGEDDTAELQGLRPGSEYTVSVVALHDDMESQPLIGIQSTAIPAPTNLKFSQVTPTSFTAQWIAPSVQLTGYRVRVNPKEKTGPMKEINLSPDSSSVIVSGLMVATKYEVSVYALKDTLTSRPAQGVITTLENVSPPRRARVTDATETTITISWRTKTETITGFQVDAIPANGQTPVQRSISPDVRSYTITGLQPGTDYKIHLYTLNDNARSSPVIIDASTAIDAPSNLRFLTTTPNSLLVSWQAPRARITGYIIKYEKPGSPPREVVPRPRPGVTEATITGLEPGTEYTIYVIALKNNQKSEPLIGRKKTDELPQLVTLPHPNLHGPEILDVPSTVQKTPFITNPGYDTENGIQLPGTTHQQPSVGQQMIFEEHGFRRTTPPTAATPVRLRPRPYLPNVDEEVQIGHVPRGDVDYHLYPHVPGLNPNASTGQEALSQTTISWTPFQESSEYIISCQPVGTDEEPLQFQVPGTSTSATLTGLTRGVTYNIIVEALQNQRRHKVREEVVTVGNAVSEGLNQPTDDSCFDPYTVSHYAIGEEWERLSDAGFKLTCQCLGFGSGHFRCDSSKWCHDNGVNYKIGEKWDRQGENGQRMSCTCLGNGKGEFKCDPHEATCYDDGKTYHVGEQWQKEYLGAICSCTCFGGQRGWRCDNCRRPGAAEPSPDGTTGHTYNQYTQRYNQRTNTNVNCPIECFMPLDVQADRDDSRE

Tests used:
[1] = molecular target: ED-A isoform of fibronectin (A-FN) in mouse tissue cryosections (mouse) (UniProt P11276); test: immunofluorescence, biotinylated F8-IL4 on acetone-fixed tumour cryosections
[2] = molecular target: ED-A isoform of fibronectin (A-FN) in mouse tissue cryosections (mouse) (UniProt P11276); test: immunofluorescence, SIP format antibody at 2 µg/ml on frozen pancreas sections of diabetic mice

binding [1]: binds
B1: F8-IL4 (F8-(murine) IL4) (protein)
chain: EVQLLESGGGLVQPGGSLRLSCAASGFTFSLFTMSWVRQAPGKGLEWVSAISGSGGSTYYADSVKGRFTISRDNSKNTLYLQMNSLRAEDTAVYYCAKSTHLYLFDYWGQGTLVTVSSGGSGGEIVLTQSPGTLSLSPGERATLSCRASQSVSMPFLAWYQQKPGQAPRLLIYGASSRATGIPDRFSGSGSGTDFTLTISRLEPEDFAVYYCQQMRGRPPTFGQGTKVEIKSSSSGSSSSGSSSSGHIHGCDKNHLREIIGILNEVTGEGTPCTEMDVPNVLTATKNTTESELVCRASKVLRIFYLKHGKTPCLKKNSSVLMELQRLFRAFRCLDSSISCTMNESKSTSLKDFLESLKSIMQMDYS

binding [2]: binds
B2: F8-SIP (antibody F8 in SIP format) (antibody, human IgE)
chain: EVQLLESGGGLVQPGGSLRLSCAASGFTFSLFTMSWVRQAPGKGLEWVSAISGSGGSTYYADSVKGRFTISRDNSKNTLYLQMNSLRAEDTAVYYCAKSTHLYLFDYWGQGTLVTVSSGGGGSGGGGSGGGGEIVLTQSPGTLSLSPGERATLSCRASQSVSMPFLAWYQQKPGQAPRLLIYGASSRATGIPDRFSGSGSGTDFTLTISRLEPEDFAVYYCQQMRGRPPTFGQGTKVEIKSGGSGGPRAAPEVYAFATPEWPGSRDKRTLACLIQNFMPEDISVQWLHNEVQLPDARHSTTQPRKTKGSGFFVFSRLEVTRAEWEQKDEFICRAVHEAASPSQTVQRAVSVNPESSRRGGC
